Laboratory results reported in PubChem BioAssay AID2685 (National Center for Advancing Translational Sciences (NCATS), 2010).
The other results are listed elsewhere or left out. The main result of the screen is listed elsewhere. These columns were measured beside it and carry no call. Compounds called inactive in the main read-out are mostly missing here. Words in brackets tell the shape of the fitted curve; partial curves, single points and poor fits give uncertain potencies.

Test: qHTS Assay for Lipid Storage Modulators in Drosophila S3 Cells;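 on cell number change: cells counted by Cell Tracker Red CMTPX staining in the red channel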
Conditions: BODIPY lipid droplet fluorescence, 18-24 h; for cell number change: measured here: cell count max response, cells fed with added oleic acid
In short: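 Drosophila S3 cells loaded with oleic acid (400 uM, as added) and compounds at several concentrations; lipid droplets imaged by 488-nm laser-scanning cytometry, 500–530 nm intensity and object ratio to cell channel. Percent activity normalized to 20 uM Triacsin C.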

[1] = measured here: lipid fluorescence (Fed channel) AC50, cells fed with added oleic acid
[2] = measured here: cell number channel AC50, cells fed with added oleic acid

Which results are given for `O=C(CSc1nnc2ccccn12)NCc1ccc2c(c1)OCO2`?
cell number change: -25.3%; AC50 [1]: 6.51 µM [falling, single point]

What does the source list for `COc1cc(-c2nc(S(=O)(=O)c3ccccc3)c(N3CCOCC3)o2)cc(OC)c1OC`?
cell number change: -75.2%; AC50 [2]: 25.9 µM [falling, partial curve, poor fit]; AC50 [1]: 2.31 µM [rising, partial curve]

Which AC50 [1] does the source give for `COc1ccc(CN2CCCC(C(=O)N3CCCCC3)C2)c(OC)c1` (stereo not given) here?
Its AC50 is 29.1 µM [falling, single point].

With `CCC(SCC(=O)OC)C(=O)Nc1nnc(C(C)C)s1` (stereo not given) as the molecule, how does the cell number change read?
The cell number change was 2.91%.

What about the AC50 [1] of the same molecule?
Its AC50 is 0.00461 µM [falling, full curve, poor fit].

With `Cc1ccc(NC(=O)C2CCCN(S(=O)(=O)c3ccc4[nH]c(=O)ccc4c3)C2)nc1` (stereo not given) as the molecule, how does the cell number change read?
Its cell number change is -11.5%.

What about the AC50 [1] of the same molecule?
Its AC50 is 29.1 µM [rising, single point].

Which cell number change does the source give for `Brc1cnc(N2CCCC2)nc1N1CCOCC1` here?
The cell number change was 1.96%.

And the AC50 [1]?
Its AC50 is 1.84 µM [rising, full curve].

With `COC(=O)c1ccc(NC(=O)CCOc2ccccc2)cc1` as the molecule, how does the cell number change read?
Its cell number change is 15.9%.

What about the AC50 [1] of the same molecule?
The AC50 was 29.1 µM [falling, partial curve].

Which results are given for `COc1ccc(C(O)P(=O)(OC(C)C)OC(C)C)c(OC)c1` (stereo not given)?
cell number change: 0.25%; AC50 [1]: 29.1 µM [falling, single point]

For `Cc1cccc(Nc2nc(N)nc(-c3oc4ccccc4c3C)n2)c1`, which cell number change is on record?
The cell number change was -34%.

What about the AC50 [2] of the same molecule?
Its AC50 is 29.1 µM [falling, single point].

What about the AC50 [1] of the same molecule?
The AC50 was 32.6 µM [falling, single point].

Which results are given for `Cc1[nH]n(C(N)=S)c(=O)c1N=Nc1ccc([N+](=O)[O-])cc1Cl`?
cell number change: -71.5%; AC50 [2]: 25.9 µM [falling, partial curve]; AC50 [1]: 2.06 µM [rising, partial curve]

With `COc1cccc(-c2noc(Cn3nc(C)c([N+](=O)[O-])c3C)n2)c1` as the molecule, how does the cell number change read?
Its cell number change is 25%.

And the AC50 [1]?
The AC50 was 18.4 µM [rising, single point].

For `Cc1ccc(N=Nc2c(N)[nH]n3c(=O)cc(-c4ccccc4)nc23)cc1`, which AC50 [1] is on record?
The AC50 was 0.92 µM [falling, full curve, poor fit].

With `Cc1noc(C)c1C(=O)Nc1nccs1` as the molecule, how does the cell number change read?
Its cell number change is 43%.

And the AC50 [2]?
The AC50 was 25.9 µM [rising, single point].

Which cell number change does the source give for `Cc1c(NC(=O)COC(=O)C23CC4CC(CC(Br)(C4)C2)C3)c(=O)n(-c2ccccc2)n1C` here?
The cell number change was -25%.

What about the AC50 [2] of the same molecule?
The AC50 was 1.16 µM [falling, full curve, poor fit].

And the AC50 [1]?
The AC50 was 0.058 µM [falling, full curve].

Which cell number change does the source give for `Cc1cc(N2CCN(c3ccccc3)CC2)n2c(n1)nc1ccccc12` here?
Its cell number change is -7.3%.

Which results are given for `C=CCSc1n[nH]c(=O)n1-c1cccc(C(F)(F)F)c1`?
cell number change: 15.5%; AC50 [1]: 0.00461 µM [rising, full curve, poor fit]

Which cell number change does the source give for `Cc1ccc(S(=O)(=O)NCC(=O)NCC(=O)N2CCN(c3ncccn3)CC2)cc1C` here?
Its cell number change is 16.8%.

And the AC50 [2]?
The AC50 was 6.51 µM [rising, single point].

What does the source list for `O=C(Nc1cccc(-c2nc3ccccc3[nH]2)c1)c1cccc(NC(=O)c2ccco2)c1`?
cell number change: -60.6%; AC50 [2]: 1.84 µM [rising, partial curve]; AC50 [1]: 2.06 µM [rising, partial curve]

What does the source list for `O=S(=O)(NCCc1csc(-c2ccccc2)n1)c1cccnc1`?
AC50 [2]: 3.26 µM [rising, single point]; AC50 [1]: 3.66 µM [rising, full curve]

For `CC(C)CC(=O)N=C1SC2CS(=O)(=O)CC2N1Cc1ccccc1` (stereo not given), which cell number change is on record?
Its cell number change is 6.19%.

What about the AC50 [1] of the same molecule?
The AC50 was 9.2 µM [rising, partial curve].

Which results are given for `CCOC(=O)C1=C(C)NC(C)=C(C(=O)OCC)C1c1ccc(OC)cc1`?
cell number change: -0.856%; AC50 [2]: 1.03 µM [rising, full curve, poor fit]; AC50 [1]: 0.58 µM [rising, partial curve, poor fit]

With `CCC1CCCCN1CCCNC(=O)c1ccc2c(c1)c(C)c(C)n2C` (stereo not given) as the molecule, how does the cell number change read?
The cell number change was 46%.

What about the AC50 [2] of the same molecule?
The AC50 was 29.1 µM [rising, single point].

And the AC50 [1]?
The AC50 was 29.1 µM [rising, single point].

Which cell number change does the source give for `CCOc1ccc(N(Cc2ccc(C(=O)O)cc2)S(=O)(=O)c2ccc(C)cc2)cc1` here?
The cell number change was -8.99%.

And the AC50 [1]?
The AC50 was 6.51 µM [rising, single point].

What does the source list for `COc1ccc(OC)c(-n2c(SCC(=O)Nc3cc(C)on3)nnc2-c2c[nH]c3ccccc23)c1`?
cell number change: -32.3%; AC50 [2]: 10.3 µM [falling, single point]; AC50 [1]: 23.1 µM [rising, single point]

What does the source list for `COc1ccc2c(Cl)c(C(=O)NCc3ccco3)sc2c1`?
cell number change: 150%; AC50 [2]: 5.8 µM [rising, partial curve]; AC50 [1]: 2.31 µM [rising, full curve]

For `CCn1cc(C(=O)NCC(=O)NC(C)(C)CO)c(=O)c2cc3c(cc21)OCO3`, which cell number change is on record?
The cell number change was 6.31%.

And the AC50 [1]?
The AC50 was 7.31 µM [falling, single point].

Which cell number change does the source give for `COc1ccc(C(C)=O)cc1COC(=O)c1cccnc1SC` here?
Its cell number change is 17.6%.

And the AC50 [1]?
Its AC50 is 0.731 µM [rising, single point].

Which cell number change does the source give for `Cc1cc(SCC(=O)OCC(=O)N(C)C2CCS(=O)(=O)C2)c(C)cc1Br` (stereo not given) here?
The cell number change was 25%.

And the AC50 [2]?
The AC50 was 0.58 µM [rising, full curve, poor fit].

Which cell number change does the source give for `C=CCNC(=O)/C(C#N)=C/c1ccccc1Cl` here?
The cell number change was -12%.

And the AC50 [1]?
Its AC50 is 25.1 µM [falling, partial curve].

Which results are given for `O=C(Nc1cccc(-n2cnnn2)c1)c1ccccc1Br`?
cell number change: -16.5%; AC50 [1]: 29.1 µM [falling, single point]

What does the source list for `CCCOc1ccc(-c2c(=O)n(O)c3ccccc3[n+]2[O-])cc1`?
cell number change: -14.6%; AC50 [1]: 29.1 µM [falling, single point]

Which cell number change does the source give for `CCOc1ccc(NC(=O)C/C(C)=N/NC(=O)Cc2cccs2)cc1` here?
Its cell number change is 16.7%.

And the AC50 [1]?
Its AC50 is 0.116 µM [rising, single point].

For `COc1cc(S(=O)(=O)N2CCCN(C)CC2)ccc1NC(C)=O`, which cell number change is on record?
The cell number change was 35.9%.

For `N#Cc1cnn(Cc2ccccc2)c1/N=C/N1CCOCC1`, which AC50 [2] is on record?
The AC50 was 6.51 µM [rising, single point].

Which AC50 [1] does the source give for `O=C(COc1cccc(Cl)c1)Nc1ccccc1N1CCCCC1` here?
The AC50 was 0.231 µM [falling, full curve].

For `O=C(NCc1ccc(Cl)cc1)C1CCC(CNc2c(N3CCOCC3)c(=O)c2=O)CC1` (stereo not given), which cell number change is on record?
Its cell number change is -0.815%.

Which cell number change does the source give for `CN(C)C(=O)c1ccc(NC(=O)c2cc(-c3ccco3)nc3ccccc23)cc1` here?
Its cell number change is 15.7%.

And the AC50 [1]?
The AC50 was 18.4 µM [rising, single point].

Which results are given for `Cc1ccc(NC(=O)CSC(N)=O)cc1Cl`?
cell number change: -16.9%; AC50 [1]: 0.13 µM [falling, full curve, poor fit]

For `O=C(CSCc1ccc([N+](=O)[O-])cc1)NCCSCc1ccccc1`, which cell number change is on record?
Its cell number change is -18.6%.

What about the AC50 [1] of the same molecule?
The AC50 was 20.6 µM [falling, partial curve].

With `Cc1cc(C(=O)N2CCCC2)n[nH]1` as the molecule, how does the cell number change read?
Its cell number change is -16.6%.

What about the AC50 [1] of the same molecule?
The AC50 was 0.13 µM [rising, full curve, poor fit].

With `O=C(NC1CCN(Cc2ccccc2)CC1)C1CCN(S(=O)(=O)c2cccc([N+](=O)[O-])c2)CC1` as the molecule, how does the cell number change read?
Its cell number change is 13.2%.

What about the AC50 [1] of the same molecule?
Its AC50 is 1.64 µM [rising, full curve, poor fit].

With `CCOC(=O)N1CCN(Cc2cc(Cl)c3cccnc3c2O)CC1` as the molecule, how does the cell number change read?
The cell number change was -10.5%.

What about the AC50 [1] of the same molecule?
Its AC50 is 29.1 µM [falling, single point].

For `C=CCN(C(=O)c1csnn1)C(C(=O)NCc1ccc(F)cc1)c1ccccc1F` (stereo not given), which cell number change is on record?
Its cell number change is -17.1%.

What about the AC50 [1] of the same molecule?
Its AC50 is 6.51 µM [falling, partial curve, poor fit].

Which cell number change does the source give for `CCCCc1ccc(NC(=O)c2ccc(NS(C)(=O)=O)cc2)cc1` here?
The cell number change was -38.5%.

And the AC50 [2]?
Its AC50 is 29.1 µM [falling, single point].

What about the AC50 [1] of the same molecule?
Its AC50 is 23.1 µM [falling, partial curve].

Which AC50 [1] does the source give for `Cc1ccc(NC(=O)C2CCN(S(=O)(=O)c3ccc4c(c3)OCCO4)CC2)nc1` here?
Its AC50 is 0.58 µM [rising, single point].

For `CCOC(=O)C1=C(CS(=O)(=O)c2ccc(C)cc2)NC(=O)NC1c1cc(OC)c(O)c(OC)c1` (stereo not given), which cell number change is on record?
The cell number change was 0.298%.

With `CC1(c2cc([N+](=O)[O-])cc([N+](=O)[O-])c2)CC(C)(C)N(C(=O)c2ccccc2)c2ccccc21` (stereo not given) as the molecule, how does the cell number change read?
The cell number change was -12.2%.

And the AC50 [1]?
The AC50 was 13 µM [falling, partial curve].

Which cell number change does the source give for `COc1cccc(OCC(=O)NNC(=O)c2cccs2)c1` here?
Its cell number change is 20.7%.

What about the AC50 [1] of the same molecule?
Its AC50 is 0.92 µM [rising, full curve, poor fit].

Which cell number change does the source give for `COC(=O)CC1COc2ccccc2N1C(=O)c1ccc(Cl)cc1` (stereo not given) here?
The cell number change was 35.6%.

What about the AC50 [2] of the same molecule?
The AC50 was 18.4 µM [rising, single point].

And the AC50 [1]?
The AC50 was 8.2 µM [rising, partial curve, poor fit].

For `Cc1noc(NS(=O)(=O)c2ccc(NC(=O)/C=C/c3ccc(C(C)C)cc3)cc2)c1C`, which AC50 [1] is on record?
Its AC50 is 6.51 µM [rising, partial curve].

Which results are given for `O=C(ONC1=NCCCCC1)c1c(F)cccc1F`?
cell number change: -62.8%; AC50 [2]: 13 µM [falling, partial curve, poor fit]; AC50 [1]: 29.1 µM [falling, single point]

For `CC(C)c1ccc(OCC(=O)N2CCCCCC2)c(Br)c1`, which cell number change is on record?
Its cell number change is -18%.

And the AC50 [1]?
Its AC50 is 2.06 µM [falling, partial curve, poor fit].

Which AC50 [1] does the source give for `CC(=O)c1c(O)cc(=O)n(-c2ccccc2)c1-c1ccc(Cl)cc1` here?
Its AC50 is 0.731 µM [falling, single point].

Which results are given for `COc1ccccc1/C=C/C=N/n1c(C2CCCCC2)n[nH]c1=S`?
cell number change: -55.8%; AC50 [2]: 29.1 µM [falling, single point]

With `COc1ccccc1N=Nc1[nH]c2ccc(C)cc2c1O` as the molecule, how does the cell number change read?
Its cell number change is -29.2%.

And the AC50 [1]?
The AC50 was 25.9 µM [falling, partial curve].

Which cell number change does the source give for `Cc1sc2ncnc(N3CCC(C)CC3)c2c1C` here?
Its cell number change is -30.9%.

And the AC50 [2]?
Its AC50 is 14.6 µM [falling, partial curve].

What about the AC50 [1] of the same molecule?
The AC50 was 10.3 µM [falling, partial curve].

With `CCCN1CCN(CCCNC(=O)c2ccc3c(Cl)c4c(nc3c2)CCCC4)CC1` as the molecule, how does the AC50 [1] read?
Its AC50 is 6.51 µM [rising, single point].
